The nature of this experiment: qHTS Assay for Modulators of Lamin A Splicing. The following applies: HeLa LMNA splicing GFP/RFP minigene ratio, 48 h. Put shortly: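 S3 HeLa cells stably expressing lamin A-EGFP splicing minigene plus DsRed2, 600 cells/well, 48 h compound exposure at 37C. Laser-scanning cytometry; analysed as GFP (500-530 nm)/RFP (575-640 nm) total intensity ratio; 0.5% DMSO vehicle.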

Where [1] appears, read: measured here: RFP viability control channel.
[2] abbreviates: measured here: GFP splicing reporter channel.

The other results are listed elsewhere or left out. Further columns of the screen follow, without active or inactive calls. The list favours compounds with an active or inconclusive main result. Words in brackets tell the shape of the fitted curve; partial curves, single points and poor fits give uncertain potencies.

One may read the AC50 as the midpoint of the concentration-response curve, whichever way the signal moves. Turning to `CN(C)c1ccc(/C=C2\SC(=S)N(Nc3ncc(C(F)(F)F)cc3Cl)C2=O)cc1`, the AC50 under setting [1] was 11.2 µM [falling, partial curve, poor fit].

`Cc1nn(-c2nnc(NCc3ccccc3)nn2)c(C)c1Br`: the AC50 under setting [1] is 1.26 µM [falling, full curve, poor fit].

As to `O=C(CCN1C(=O)C2C3C=CC(C3)C2C1=O)Oc1ccc2ccccc2c1` (stereo not drawn), the AC50 under setting [2] was 6.31 µM [rising, partial curve, poor fit].

As for `CCOC(=O)c1sc(NC(=S)NC(=O)C2CC2)cc1C`, under setting [1], the AC50 was 0.708 µM [rising, full curve, poor fit].

On to `C1=C(CCNc2ncnc3c2[nH]c2ccccc23)CCCC1`, for which, under setting [1], the AC50 was 5.62 µM [rising, single point].

On to `CC1(C)Cc2c(sc3ncnc(NNC(=S)NCc4ccccc4)c23)CO1`, for which the AC50 under setting [1] was 1.41 µM [rising, partial curve, poor fit].

Turning to `OCCN1CCN(Cc2cccc(Oc3ccc(Cl)cc3)c2)CC1`, the AC50 under setting [1] is 22.4 µM [rising, single point].

Take `Cc1cc(=O)oc2cc(OCC(=O)OCC(=O)NC3CC3)ccc12`: the AC50 under setting [1] was 0.891 µM [falling, full curve].

With `CCN(CC(=O)c1c(N)n(C)c(=O)n(C)c1=O)c1cccc2ccccc12`, the AC50 under setting [1] is 22.4 µM [rising, single point].

`COc1cc(C2C(C(=O)Nc3ccccc3C)=C(C)Nc3nc(SCc4cc(C)ccc4C)nn32)ccc1O` (stereo not drawn): the AC50 under setting [2] is 35.5 µM [falling, single point] and the AC50 under setting [1] is 35.5 µM [falling, single point].

Take `CCOC(=O)/C=c1\s/c(=C\c2ccccc2C)c(=O)n1CC(=O)NCc1ccc2c(c1)OCO2`: the AC50 under setting [1] is 3.16 µM [rising, single point].

On to `O=C(CSc1ccccn1)N/N=C/C=C/c1ccccc1`, for which the half-maximal activity concentration (AC50) under setting [1] is 17.8 µM [rising, single point].

In the case of `O=C(Nc1ccc2c(c1)CCC2)C1CCN(c2ncccn2)CC1`, the AC50 runs as follows: under setting [2], 10 µM [rising, partial curve, poor fit]; under setting [1], 8.91 µM [rising, partial curve].

In the case of `CC/C(=N\NC(=O)c1ccc(CN(C)S(=O)(=O)c2ccc(C)cc2)cc1)c1ccc(OC(F)F)cc1`, the half-maximal activity concentration (AC50) under setting [1] is 35.5 µM [rising, partial curve].

Regarding `O=C(c1cn(-c2ccccc2)nc1-c1cccs1)N1CCN(c2ccccc2)CC1`, the AC50 under setting [1] is 35.5 µM [rising, single point].

In the case of `O=S(=O)(N/N=C/c1ccccc1OCc1ccc(Cl)cc1)c1ccccc1`, the AC50 is 10 µM [rising, partial curve] under setting [2] and 15.8 µM [rising, partial curve] under setting [1].

Turning to `CCOC(=O)c1ccc(NC(=S)N2CCN(c3ccc(N4CCOCC4)nn3)CC2)cc1`, the AC50 runs as follows: under setting [2], 3.55 µM [falling, partial curve, poor fit]; under setting [1], 3.98 µM [falling, partial curve, poor fit].

As for `O=C(NCCc1c[nH]c2ccccc12)C(=O)NCC1OCCCN1S(=O)(=O)c1ccc(F)cc1` (stereo not drawn), the AC50 is, setting by setting: under setting [2], 0.224 µM [rising, full curve, poor fit]; under setting [1], 17.8 µM [rising, partial curve].

For the compound `S=C(Nc1ccc(Nc2ccccc2)cc1)NC1CCCCCC1`, under setting [1], the AC50 was 3.55 µM [rising, single point].

For the compound `CSc1cccc(NC(=O)/C=C/c2ccccc2)c1`, under setting [2], the AC50 is 0.0316 µM [falling, full curve, poor fit].

On to `CCOC(=O)c1c(C)[nH]c(C(=O)N/N=C/c2ccc(Br)cc2)c1C`, for which the concentration at half-maximal activity (AC50) under setting [1] was 0.158 µM [rising, full curve, poor fit].

Consider `Fc1cccc(C[n+]2csc3ccccc32)c1`, for which, under setting [1], the AC50 is 35.5 µM [falling, single point].

For `COc1cc(-c2nc(CN3CCCN(C(=O)c4ccco4)CC3)c(C)o2)ccc1F`, the AC50 under setting [1] was 0.00501 µM [falling, full curve, poor fit].

As for `O=C(c1nn2c(C(F)(F)F)cc(-c3cccs3)nc2c1Br)N1CCCc2ccccc21`, the AC50 is 1.58 µM [falling, partial curve] under setting [2] and 5.62 µM [falling, single point] under setting [1].

Regarding `COCCN1C(=O)N[C@@H](CCc2ccccc2)C(C(C)=O)=C1C`, the AC50 by setting is: under setting [2], 15.8 µM [rising, single point]; under setting [1], 12.6 µM [rising, single point].

`O=C1C=C(NCc2ccccc2)c2ccccc2C1=O`: the AC50 was 10 µM [falling, partial curve, poor fit] under setting [2] and 12.6 µM [falling, partial curve] under setting [1].

`Cc1ccccc1C(=O)N1CCN(c2ccc(NC(=O)CSc3ccc(Cl)cc3)cc2)CC1`: the concentration at half-maximal activity (AC50) under setting [2] is 0.2 µM [falling, full curve].

Regarding `CC(=O)c1cccc(NC(=O)COC(=O)c2cccs2)c1`, the AC50 under setting [2] was 89.1 µM [falling, partial curve].

In the case of `COC(=O)c1cc2ccsc2n1Cc1ccccc1F`, the AC50 under setting [1] is 0.00355 µM [falling, full curve, poor fit].

Consider `O=C(NC(=S)Nc1ccc(NC(=O)c2cccs2)cc1)c1ccco1`, for which, under setting [1], the AC50 was 15.8 µM [rising, partial curve, poor fit].

For `Cc1nn(-c2ccccc2)c(N2CCCC2)c1/C=N/NC(=O)c1cc(-c2ccccc2)nc2ccccc12`, the AC50 under setting [1] is 10 µM [rising, partial curve, poor fit].

`O=S(=O)(NCc1ccc(F)cc1)c1ccc2[nH]c3c(c2c1)CCCC3`: the AC50 is, setting by setting: under setting [2], 22.4 µM [falling, partial curve]; under setting [1], 12.6 µM [falling, partial curve].

As to `Cc1cc(/C=C(\C#N)C(N)=O)c(C)n1-c1ccc(N2CCOCC2)c([N+](=O)[O-])c1`, the AC50 runs as follows: under setting [2], 12.6 µM [falling, partial curve]; under setting [1], 7.94 µM [falling, partial curve].

For the compound `COc1ccc(NC(=O)C2Cc3ccccc3CN2S(=O)(=O)c2ccccc2)cc1OC` (stereo not drawn), the AC50 runs as follows: under setting [2], 25.1 µM [rising, partial curve, poor fit]; under setting [1], 35.5 µM [rising, single point].

Turning to `COc1cc(C(=O)N2CCN(c3cccc(C)c3C)CC2)cc(OC)c1OC`, the AC50 under setting [1] was 11.2 µM [rising, partial curve].

Take `C/C(=N/Nc1nc(-c2ccccc2)cc(-c2ccccc2)n1)c1ccc(N)cc1`: the AC50 under setting [1] was 14.1 µM [rising, single point].

With `CCc1ccccc1NC(=O)CCCn1c(=O)c2cccn2c2ccccc21`, the concentration at half-maximal activity (AC50) under setting [2] is 15.8 µM [rising, partial curve, poor fit] and the half-maximal activity concentration (AC50) under setting [1] is 35.5 µM [rising, single point].

Take `CCOC(=O)c1[nH]c2ccc(Br)cc2c1NC(=O)CCN1CCN(C(=O)OCC)CC1`: the AC50 is 6.31 µM [rising, partial curve, poor fit] under setting [2] and 11.2 µM [rising, partial curve] under setting [1].

With `CCOC(=O)N/N=C/C=C/c1ccccc1`, the half-maximal activity concentration (AC50) under setting [1] was 0.0631 µM [rising, full curve, poor fit].

For the compound `COc1ccc(-c2nn(-c3ccccc3)cc2C(=O)Nc2nccs2)cc1OC`, under setting [1], the AC50 is 35.5 µM [rising, single point].

Consider `CSc1nsc(SC)c1C(=O)Nc1ccc(Cl)cc1`, for which, under setting [1], the AC50 is 0.00282 µM [falling, full curve, poor fit].

In the case of `Cc1cc(C(=O)OCC(=O)N2CC(=O)Nc3ccccc32)c(C)n1-c1ccc(F)cc1`, under setting [1], the AC50 is 12.6 µM [rising, partial curve].

`CN(C)c1nc(N)nc(CSc2nnnn2-c2cccc3ccccc23)n1`: the AC50 under setting [1] was 2.51 µM [rising, full curve].

Regarding `O=C(CCCn1cnc([N+](=O)[O-])n1)Nc1cccc(Cl)c1Cl`, under setting [1], the AC50 was 7.08 µM [rising, full curve, poor fit].

Regarding `COc1c2occc2c(OC)c2c(=O)cc(C)oc12`, under setting [2], the AC50 was 0.00282 µM [rising, full curve, poor fit].

As to `CNc1ncnc2ccc(-c3ccccc3OC)cc12`, the AC50 is 25.1 µM [falling, single point] under setting [2] and 25.1 µM [falling, single point] under setting [1].

Consider `COc1ccc2[nH]cc(CCNc3ccnc(-c4ccoc4)n3)c2c1`, for which the AC50 under setting [2] is 12.6 µM [falling, single point].

As for `CN(C)c1ccc(P(=O)(CC(=O)N/N=C/c2ccc(C#N)cc2)OCCCl)cc1` (stereo not drawn), under setting [2], the AC50 was 0.316 µM [rising, full curve, poor fit].

Take `CCCCOC(=O)Cn1c(=O)c2c(nc3n2CCCCN3c2ccc(C)cc2)n(C)c1=O`: the half-maximal activity concentration (AC50) under setting [1] was 14.1 µM [rising, partial curve].

For `Brc1ccc(OCCOc2cccc3cccnc23)cc1`, the AC50 under setting [1] was 0.00447 µM [rising, full curve, poor fit].

For the compound `Cc1ccc(Cl)cc1NC(=O)Cn1c(SCC(=O)NCc2ccccc2)nc2ccccc21`, under setting [1], the AC50 was 35.5 µM [falling, single point].

As to `O=C(CN(Cc1ccco1)C(=O)Cn1nnc(-c2ccc(F)cc2)n1)NC1CCCC1`, the AC50 under setting [2] is 0.316 µM [rising, partial curve] and the AC50 under setting [1] was 28.2 µM [rising, single point].

On to `CC1(C)CC(=O)c2sc(NC(=O)CCS(=O)(=O)c3ccccc3)nc2C1`, for which, under setting [2], the AC50 was 17.8 µM [falling, partial curve].

As to `CC(=O)Nc1ccc(S(=O)(=O)NCC(=O)OCc2cc(=O)oc3ccc4ccccc4c23)cc1`, the AC50 is 12.6 µM [rising, partial curve, poor fit] under setting [2] and 14.1 µM [rising, single point] under setting [1].

Take `CC(=O)c1ccc(C(=O)N(CCN(C)C)c2nc3c(Cl)cccc3s2)cc1`: the AC50 reads like this: under setting [2], 0.316 µM [rising, partial curve]; under setting [1], 0.158 µM [rising, full curve].

In the case of `COCCNC(=S)N/N=C/c1ccc(N2CCOCC2)cc1`, under setting [1], the AC50 was 35.5 µM [rising, single point].

Source of the values: PubChem BioAssay AID1487 (National Center for Advancing Translational Sciences (NCATS), 2009).
